Publication PMC10730134
No constants are given. Whether binding was seen depends on the method and setting. Binding seen in cells or lysates may run through a third protein. Binding can be weak; no strength is given. Tags and fused reporters may be left off the sequences shown.

Target: ILK5-cLUC
Experiment: split reporter; firefly split-luciferase complementation imaging (LCI); nLUC and cLUC constructs co-infiltrated with Agrobacterium GV3101 into 4 week-old N. benthamiana leaves; luminescence after 3 days with D-luciferin, low-light CCD camera

- binding: binds
B1: P2K1-nLUC (receptor, UniProt Q9LSR8 22-766)
chain: QQETSFVYESFLDRQNLYLDKSAIVLPSGLLQLTNASEHQMGHAFHKKPIEFSSSGPLSFSTHFVCALVPKPGFEGGHGIVFVLSPSMDFTHAESTRYLGIFNASTNGSSSYHVLAVELDTIWNPDFKDIDHNHVGIDVNSPISVAIASASYYSDMKGSNESINLLSGNPIQVWVDYEGTLLNVSVAPLEVQKPTRPLLSHPINLTELFPNRSSLFAGFSAATGTAISDQYILWWSFSIDRGSLQRLDISKLPEVPHPRAPHKKVSTLIILLPVCLAILVLAVLAGLYFRRRRKYSEVSETWEKEFDAHRFSYRSLFKATKGFSKDEFLGKGGFGEVYRGNLPQGREIAVKRVSHNGDEGVKQFVAEVVSMRCLKHRNLVPLFGYCRRKRELLLVSEYMPNGSLDEHLFDDQKPVLSWSQRLVVVKGIASALWYLHTGADQVVLHRDVKASNIMLDAEFHGRLGDFGMARFHEHGGNAATTAAVGTVGYMAPELITMGASTGTDVYAFGVFMLEVTCGRRPVEPQLQVEKRHMIKWVCECWKKDSLLDATDPRLGGKFVAEEVEMVMKLGLLCSNIVPESRPTMEQVVLYLNKNLPLPDFSPYTLGIGTFAPVLVDASSLVVSSASWSLSGPSMSSSSPNHSPYAWQSTDQPWGQTIDTKNSLHIVAEPEKPSPAVKMVTLPAEDPQSNHSSISSQRVQPVKREKRRLHQILVAFPWINKQYFKLGLPKHIVHVSLFFFLQLARL
